Source: PubChem BioAssay AID504772 (Drosophila RNAi Screening Center, 2011)
Only reagents picked out of a larger screen are listed. 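Only primary screen hits listed, as up or down without numbers; fold changes behind calls not deposited; all reporter-lowering hits marked not picked.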 The record does not give: the amount of reagent, the dose of the treatment.

Test: 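Finding modifiers of Wnt signalling started by LRP6 in fly cells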 (primary screen)
Cells: Drosophila clone 8 cells
Reagents: long dsRNA against Drosophila genes
Duration: four days
Challenge: pathway switched on by co-transfected constitutively active LRP6 lacking its extracellular part (DeltaNLRP6)
Measured: 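Light from a beta-catenin-dependent firefly luciferase reporter (dTF12) relative to co-transfected Renilla luciferase, given as up or down, after four days with Wnt signalling driven by truncated active LRP6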
Call rule: 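Picked genes show at least a doubling of Wnt reporter light upon knockdown and have a known human equivalent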
Meaning of the calls: active = picked as conserved enhancer hit; inactive = not picked

| predicted target | amplicon | reporter change after knockdown | call |
| --- | --- | --- | --- |
| CG10019 | DRSC00279 | reporter signal went down | inactive |
| CarT (Carcinine transporter) | DRSC03196 | reporter signal went down | inactive |
| Wnk (Wnk kinase) | DRSC11813 | reporter signal went down | inactive |
| lig (lingerer) | DRSC07247 | reporter signal went down | inactive |
| Axn (Axin) | DRSC14120 | reporter signal went up | inactive |
| tai (taiman) | DRSC02207 | reporter signal went down | inactive |
| CG5386 | DRSC15788 | reporter signal went up | inactive |
| betaTub85D (beta-Tubulin at 85D) | DRSC16910 | reporter signal went up | inactive |
| Pig1 (Pre-intermoult gene 1) | DRSC18698 | reporter signal went down | inactive |
| eIF5B (eukaryotic translation initiation factor 5B) | DRSC08710 | reporter signal went down | inactive |
| pb (proboscipedia) | DRSC12629 | reporter signal went up | inactive |
| Rcd5 (Reduction in Cnn dots 5) | DRSC08180 | reporter signal went up | active |
| crol (crooked legs) | DRSC03514 | reporter signal went up | inactive |
| mle (maleless) | DRSC04921 | reporter signal went up | inactive |
| Zasp52 (Z band alternatively spliced PDZ-motif protein 52) | DRSC06269 | reporter signal went down | inactive |
| Pp1-13C (Protein phosphatase 1 at 13C) | DRSC20269 | reporter signal went up | active |
| Ada3 (transcriptional Adaptor 3) | DRSC20321 | reporter signal went up | inactive |
| wcy (wacky) | DRSC20132 | reporter signal went up | inactive |
| CG32425 | DRSC11739 | reporter signal went down | inactive |
| CG10333 | DRSC02036 | reporter signal went up | inactive |
| EloA (Elongin A) | DRSC16109 | reporter signal went down | inactive |
| Ran | DRSC20364 | reporter signal went up | active |
| scny (scrawny) | DRSC10509 | reporter signal went down | inactive |
| nocte (no circadian temperature entrainment) | DRSC18123 | reporter signal went up | inactive |
| mi (minus) | DRSC04498 | reporter signal went down | inactive |
| snf (sans fille) | DRSC18835 | reporter signal went up | inactive |
| Trf2 (TATA box binding protein-related factor 2) | DRSC18727 | reporter signal went up | inactive |
| dre4 | DRSC08714 | reporter signal went up | inactive |
| CG32712 | DRSC17820 | reporter signal went up | inactive |
| ken (ken and barbie) | DRSC04696 | reporter signal went down | inactive |
| Xpd (Xeroderma pigmentosum D) | DRSC04666 | reporter signal went up | inactive |
| Fs(2)Ket (Female sterile (2) Ketel) | DRSC03328 | reporter signal went up | active |
| SmD2 (Small ribonucleoprotein particle protein SmD2) | DRSC12536 | reporter signal went up | inactive |
| CG12299 | DRSC02158 | reporter signal went up | inactive |
| CG3078 | DRSC18531 | reporter signal went down | inactive |
| RanBPM (Ran-binding protein M) | DRSC06079 | reporter signal went down | inactive |
| stwl (stonewall) | DRSC11400 | reporter signal went down | inactive |
| CG32365 | DRSC10977 | reporter signal went down | inactive |
| NAT1 | DRSC06854 | reporter signal went up | inactive |
| RhoGEF64C (Rho guanine nucleotide exchange factor at 64C) | DRSC08319 | reporter signal went down | inactive |
| Kap-alpha3 (karyopherin alpha3) | DRSC16976 | reporter signal went up | inactive |
| sick (sickie) | DRSC02303 | reporter signal went down | inactive |
| LysS (Lysozyme S) | DRSC08677 | reporter signal went down | inactive |
| CG32137 | DRSC10272 | reporter signal went down | inactive |
| Rnb (R and B) | DRSC16325 | reporter signal went down | inactive |
| p-cup (presidents-cup) | DRSC19513 | reporter signal went down | inactive |
| Clp (Clipper) | DRSC00746 | reporter signal went down | inactive |
| Rcd1 (Reduction in Cnn dots 1) | DRSC07116 | reporter signal went up | inactive |
| arm (armadillo) | DRSC18738 | reporter signal went down | inactive |
| U2af38 (U2 small nuclear riboprotein auxiliary factor 38) | DRSC00796 | reporter signal went up | inactive |
| eIF1A (eukaryotic translation initiation factor 1A) | DRSC16937 | reporter signal went up | inactive |
| CG32428 | DRSC11697 | reporter signal went down | inactive |
| osa | DRSC17022 | reporter signal went up | inactive |
| CG42404 | DRSC15558 | reporter signal went down | inactive |
| Rbp9 (RNA-binding protein 9) | DRSC00779 | reporter signal went up | inactive |
| Lint-1 (l(3)mbt interacting protein 1) | DRSC19822 | reporter signal went down | inactive |
| CG11790 | DRSC14390 | reporter signal went up | inactive |
| btd (buttonhead) | DRSC18747 | reporter signal went up | inactive |
| CG12104 | DRSC08254 | reporter signal went down | inactive |
| SNRPG (Small nuclear ribonucleoprotein G) | DRSC20207 | reporter signal went up | inactive |
| Gas41 | DRSC03156 | reporter signal went up | inactive |
| dgt1 (dim gamma-tubulin 1) | DRSC15301 | reporter signal went up | active |
| CG9018 | DRSC08618 | reporter signal went up | inactive |
| trx (trithorax) | DRSC17089 | reporter signal went up | inactive |
| CG10969 | DRSC09811 | reporter signal went down | inactive |
| Bx (Beadex) | DRSC19350 | reporter signal went down | inactive |
| Hipk (Homeodomain interacting protein kinase) | DRSC08507 | reporter signal went down | inactive |
| CG5608 | DRSC15841 | reporter signal went down | inactive |
| CG31224 | DRSC16290 | reporter signal went up | inactive |
| Drsl2 (Drosomycin-like 2) | DRSC08160 | reporter signal went down | inactive |
| Klp31E (Kinesin-like protein at 31E) | DRSC03354 | reporter signal went up | inactive |
| RpL13A (Ribosomal protein L13A) | DRSC12265 | reporter signal went down | inactive |
| Cdk1 (Cyclin-dependent kinase 1) | DRSC03504 | reporter signal went down | inactive |
| CG13737 | DRSC10064 | reporter signal went down | inactive |
| CG32547 | DRSC19626 | reporter signal went down | inactive |
| ap (apterous) | DRSC04917 | reporter signal went down | inactive |
| TfIIA-S (Transcription-factor-IIA-S) | DRSC16883 | reporter signal went down | inactive |
| tral (trailer hitch) | DRSC09779 | reporter signal went down | inactive |
| ACC (Acetyl-CoA carboxylase) | DRSC06059 | reporter signal went down | inactive |
| CG11030 | DRSC02120 | reporter signal went down | inactive |
| Cyfip (Cytoplasmic FMR1 interacting protein) | DRSC15679 | reporter signal went up | inactive |

Single entries from the list.
Rcd5 (Reduction in Cnn dots 5) [DRSC08180], reporter change after knockdown: reporter signal went up
Entry for Fs(2)Ket (Female sterile (2) Ketel) [DRSC03328] under “reporter change after knockdown”: reporter signal went up
osa [DRSC17022], reporter change after knockdown = reporter signal went up
Value of trx (trithorax) [DRSC17089] in “reporter change after knockdown”: reporter signal went up
For “reporter change after knockdown”, sick (sickie) [DRSC02303] has reporter signal went down
Value of EloA (Elongin A) [DRSC16109] under “call”: inactive
